{"source": "patent US11052082B2", "about": "(priority 2012, dated 2021)", "test_system": "ALL-SCID6 xenograft", "assay": "Patient-derived ALL-xenograft tumour growth", "format": "in vivo, NOD/SCID/IL2ry null (NSG) mice", "details": "D,L-methadone orally day 1-76, 20 up to 120 mg/kg/day; doxorubicin 3 mg/kg i.v. day 46, 53, 60, 76", "note": "Counter-ions that a name gives are not always drawn.", "data": [{"smiles": "CCC(=O)C(CC(C)N(C)C)(c1ccccc1)c1ccccc1", "note": "(racemic) [D,L-methadone, D,L-methadone hydrochloride]", "values": [{"measurement": "tumour growth inhibition", "value": "significant inhibition of tumour growth"}]}]}
